Data: article PMC11915848
These are yes or no findings as the source states them, for the method shown. Binding seen in cells or lysates may run through a third protein. Binding can be weak; no strength is given. Where a sequence is shown, tags or fusion partners need not be part of it.

Target: T1, STT3B-3xFlag (UniProt Q8TCJ2)
T1 sequence: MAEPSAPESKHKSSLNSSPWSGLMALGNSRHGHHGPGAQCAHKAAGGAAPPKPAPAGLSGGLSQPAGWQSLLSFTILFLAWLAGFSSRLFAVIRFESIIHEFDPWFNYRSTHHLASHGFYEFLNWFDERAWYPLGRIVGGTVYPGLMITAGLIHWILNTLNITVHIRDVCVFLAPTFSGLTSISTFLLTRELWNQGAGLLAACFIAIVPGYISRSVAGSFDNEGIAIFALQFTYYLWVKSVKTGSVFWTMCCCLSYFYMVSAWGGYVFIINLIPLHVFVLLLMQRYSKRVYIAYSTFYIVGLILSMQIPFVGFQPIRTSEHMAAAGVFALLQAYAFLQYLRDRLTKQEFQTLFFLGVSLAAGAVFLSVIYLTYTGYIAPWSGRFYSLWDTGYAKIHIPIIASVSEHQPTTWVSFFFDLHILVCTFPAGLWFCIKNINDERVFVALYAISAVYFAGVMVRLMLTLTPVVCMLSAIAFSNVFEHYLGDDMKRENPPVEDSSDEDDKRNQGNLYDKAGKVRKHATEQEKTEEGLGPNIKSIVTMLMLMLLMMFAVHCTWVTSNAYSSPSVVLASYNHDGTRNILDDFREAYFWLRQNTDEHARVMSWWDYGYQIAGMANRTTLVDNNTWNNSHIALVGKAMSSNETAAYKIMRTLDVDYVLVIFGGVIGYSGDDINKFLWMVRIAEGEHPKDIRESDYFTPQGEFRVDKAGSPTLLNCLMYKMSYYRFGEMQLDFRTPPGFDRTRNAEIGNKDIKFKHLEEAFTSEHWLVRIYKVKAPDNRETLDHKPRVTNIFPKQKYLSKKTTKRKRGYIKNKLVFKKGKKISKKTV
Test: co-IP; HEK293T and LLC-PK1 cells co-transfected with STT3B-Flag (or pCMV-Flag) and PEDV S-His for 24 hours; lysed in RIPA buffer with PMSF; lysates incubated with anti-Flag magnetic beads, washed with PBST, eluted with 50 mM glycine pH 2.8; blotted with Flag and His antibodies

Substance: PEDV spike (S) protein, His-tagged (porcine epidemic diarrhea virus)
- binding: binds
